Reference: the supplement of paper PMC12067093, “Discovery and optimisation of a covalent ligand for TRIM25 and its application to targeted protein ubiquitination” (Chemical Science, 2025)
The other results are listed elsewhere or left out.

Compound: Cc1cc(ccc1-c1ccccc1)C(=O)N1CCCN(CC1)C(=O)CCl [compound 10]
Test: probe-labelled cysteine peptide fold change vs DMSO (competition) (log2 fold change); higher = less target engagement (more negative = stronger competition)
Details: THP-1, incubation time: 4 h
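Also: competitive profiling in live THP-1 cells: cysteine peptides tagged with an iodoacetamide desthiobiotin (IA-DTB) probe, intensity after compound treatment relative to DMSO-treated cells.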

Row | Target | probe-labelled cysteine peptide fold change (10 µM) | probe-labelled cysteine peptide fold change (50 µM)
1 | GNPTG_Q9UJJ9_157+169_LAHVSEPSTCVYALTFETPLVCHPHALLVYPTLPEALQR (UniProt Q9UJJ9) | 0.245 | -0.122
2 | GOLGA2_Q08379_794_EPEAAAPAPGTGGDSVCGETHR (UniProt Q08379) | -0.155 | -0.495
3 | GNB1L_Q9BYB4_5_TAPCPPPPPDPQFVLR (UniProt Q9BYB4) | 0.181 | 0.239
4 | GNAI2_P04899_112_QLFALSCTAEEQGVLPDDLSGVIRR (UniProt P04899) | -0.166 | -0.29
5 | GLG1_Q92896_542_MVEDCEHR (UniProt Q92896) | -0.102 | 0.174
6 | GOLGA3_Q08378_769_EDTICLLQNEK (UniProt Q08378) | -0.143 | -0.0659
7 | GLO1_Q04760_19+20_AEPQPPSGGLTDEAALSCCSDADPSTK (UniProt Q04760) | -0.684 | -0.738
8 | GNB1_P62873_25_KACADATLSQITNNIDPVGR (UniProt P62873) | -0.0343 | -0.659
9 | GMPS_P49915_137_SVREDGVFNISVDNTCSLFR (UniProt P49915) | -0.127 | -0.0644
10 | GOLPH3_Q9H4A6_84_DREGYTSFWNDCISSGLR (UniProt Q9H4A6) | 0.0608 | -0.0174
11 | GOLGA4_Q13439_1269_TCTVSELEAQLR (UniProt Q13439) | -0.0958 | -0.093
12 | GLCCI1_Q86VQ1_445_QPISAPLFSCPDK (UniProt Q86VQ1) | -0.272 | -0.551
13 | GOT2_P00505_106_EYLPIGGLAEFCK (UniProt P00505) | 0.0899 | 0.102
14 | GMFG_O60234_87+96_YVHDDGRVSYPLCFIFSSPVGCKPEQQMMYAGSK (UniProt O60234) | -0.295 | -0.824
15 | GLG1_Q92896_671_TETGQELECLQDHLDDLVVECR (UniProt Q92896) | -0.296 | 0.182
16 | GLUL_P15104_99_LVLCEVFK (UniProt P15104) | 0.0492 | 0.198
17 | GLO1_Q04760_139_GFGHIGIAVPDVYSACKR (UniProt Q04760) | -0.123 | -0.303
18 | GMDS_O60547_92_LHYGDLTDSTCLVK (UniProt O60547) | 0.0911 | 0.16
19 | GLUL_P15104_183_ACLYAGVK (UniProt P15104) | 0.0233 | 0.35
20 | GOLGB1_Q14789_681_SLSAVPDIGQCHQDELER (UniProt Q14789) | -0.0231 | -0.125
21 | GLG1_Q92896_324_FCENTQAGEGR (UniProt Q92896) | 0.0452 | 0.102
22 | GPATCH11_Q8N954_95_NALGCENK (UniProt Q8N954) | -0.145 | -0.567
23 | GNAI3_P08754_66_IIHEDGYSEDECK (UniProt P08754) | 0.0891 | 0.144
24 | GOPC_Q9HD26_76_MTSLSSCFAQLCHK (UniProt Q9HD26) | -0.184 | -0.0809
25 | GNPAT_O15228_668_LEEMLGCK (UniProt O15228) | -0.206 | -0.0115
26 | GNB4_Q9HAV0_25_ACNDATLVQITSNMDSVGR (UniProt Q9HAV0) | 0.165 | 0.277
27 | GLOD4_Q9HC38-2_45_AACNGPYDGK (UniProt Q9HC38) | 0.172 | 0.181
28 | GPC4_O75487_341_VFQGCGPPK (UniProt O75487) | -0.24 | -0.0603

Row | Target | probe-labelled cysteine peptide fold change (10 µM) | probe-labelled cysteine peptide fold change (50 µM)
29 | GPATCH8_Q9UKJ3_402_EEGAGATEPEYYHYIPPAHCK (UniProt Q9UKJ3) | -0.052 | -0.134
30 | GOLGB1_Q14789_1462_QLQVELCEMK (UniProt Q14789) | -0.277 | -0.195
31 | GMIP_Q9P107_895_LCEETPITSVPR (UniProt Q9P107) | -0.27 | -0.341
32 | GPSM1_Q86YR5_128_FDEAAVCCQR (UniProt Q86YR5) | -0.159 | -0.231
33 | GNL2_Q13823_336_VCNVAPIAGETK (UniProt Q13823) | -0.0796 | -0.195
34 | GLE1_Q53GS7_39_REDVLEECMSLPK (UniProt Q53GS7) | -0.281 | -0.388
35 | GNL3_Q9BVP2_280_QEQMCNVGVSMGLTR (UniProt Q9BVP2) | 0.183 | -0.104
36 | GPS1_Q13098_175_GHDDLGDHYLDCGDLSNALK (UniProt Q13098) | 0.0315 | -0.0253
37 | GLOD4_Q9HC38_221_IAFSCPQK (UniProt Q9HC38) | 0.465 | 0.094
38 | GOLPH3_Q9H4A6_108_LQLEACGMR (UniProt Q9H4A6) | -0.273 | -0.0492
39 | GLB1_P16278_393_TVGAALDILCPSGPIK (UniProt P16278) | 0.0498 | 0.0401
40 | GNA13_Q14344_318_DYFLEFEGDPHCLR (UniProt Q14344) | 0.243 | 0.0399
41 | GPHN_Q9NQX3_676_CILTWHHQEPLPWAQSTGNQMSSR (UniProt Q9NQX3) | 0.177 | -0.06
42 | GPHN_Q9NQX3_154_GSQECFQFILPALPHAIDLLR (UniProt Q9NQX3) | -0.188 | -0.0218
43 | GOLGA3_Q08378_477_QSCWDLER (UniProt Q08378) | 0.504 | 0.441
44 | GPC3_P51654_72_GPTCCSR (UniProt P51654) | -0.171 | -0.229
45 | GOPC_Q9HD26_327_CGGLHVGDAILAVNGVNLR (UniProt Q9HD26) | 0.157 | 0.205
46 | GOLGA4_Q13439_853_DVCTELDAHK (UniProt Q13439) | 0.108 | 0.148
47 | GLMP_Q8WWB7_216_LLHTADTCQLEVALIGASPR (UniProt Q8WWB7) | 0.0516 | -0.177
48 | GPHN_Q9NQX3_26_VGVLTVSDSCFR (UniProt Q9NQX3) | -0.0193 | -0.14
49 | GMIP_Q9P107_525_ECEAFMVSGTECEECFLTCHK (UniProt Q9P107) | 0.0436 | 0.0809
50 | GOLGB1_Q14789_3144_SDPEELREPQQSFSEAQQQLCNTR (UniProt Q14789) | 0.123 | -0.159
51 | GNL3_Q9BVP2_156_KVIEASDVVLEVLDARDPLGCR (UniProt Q9BVP2) | -0.0741 | -0.644
52 | GNAQ_P50148_9_TLESIMACCLSEEAK (UniProt P50148) | -0.191 | -0.191
53 | GPI_P06744_404_MIPCDFLIPVQTQHPIRK (UniProt P06744) | 0.0513 | -0.0762
54 | GON4L_Q3T8J9_2140_AAEATVCANNSK (UniProt Q3T8J9) | -0.29 | -0.377
55 | GPD1L_Q8N335_343_PVQEMLSCLQSHPEHT (UniProt Q8N335) | -0.0955 | 0.686

Nothing new here: entries from further up.
Row | Target | probe-labelled cysteine peptide fold change (10 µM) | probe-labelled cysteine peptide fold change (50 µM)
39 | GLB1_P16278_393_TVGAALDILCPSGPIK (UniProt P16278) | 0.0498 | 0.0401
40 | GNA13_Q14344_318_DYFLEFEGDPHCLR (UniProt Q14344) | 0.243 | 0.0399
41 | GPHN_Q9NQX3_676_CILTWHHQEPLPWAQSTGNQMSSR (UniProt Q9NQX3) | 0.177 | -0.06
42 | GPHN_Q9NQX3_154_GSQECFQFILPALPHAIDLLR (UniProt Q9NQX3) | -0.188 | -0.0218
